Data from the supplement of paper PMC7661543.
The effect of the compound repeats well; differences between the knockouts mostly do not.

System: MDA-MB-231
Assay: relative cell number vs DMSO control (72 h) (% of DMSO); higher = less growth inhibition (more cells)
Procedure: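 QMAP-Seq: a pool of 5 breast cancer cell lines (ZR-75-1, SKBR3, HCC-38, MDA-MB-231, BT-20), each carrying 12 doxycycline-inducible Cas9 sgRNA perturbations (11 knockouts plus non-targeting sgNT), was treated with compounds for 72 h at four 10-fold doses (10 nM-10 uM or 1 nM-1 uM range). Barcodes were amplified and sequenced, and cell number was interpolated from 293T spike-in standard curves. The result is expressed as % of the median of DMSO wells. Two biological replicates.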

CC(C)n1cnc2c(NCCc3ccc(O)cc3)nc(-c3csc4ccccc34)nc21 [StemRegenin1]
Conditions	relative cell number
sgRNA knockout: sgATF3, 10 nM	104
sgRNA knockout: sgATF3, 100 nM	99.2
sgRNA knockout: sgATF3, 1000 nM	124
sgRNA knockout: sgATF3, 10000 nM	70.9
sgRNA knockout: sgATF4, 10 nM	97.3
sgRNA knockout: sgATF4, 100 nM	135
sgRNA knockout: sgATF4, 1000 nM	102
sgRNA knockout: sgATF4, 10000 nM	69.1
sgRNA knockout: sgATF6, 10 nM	78.6
sgRNA knockout: sgATF6, 100 nM	135
sgRNA knockout: sgATF6, 1000 nM	93.4
sgRNA knockout: sgATF6, 10000 nM	76.1
sgRNA knockout: sgATG7, 10 nM	107
sgRNA knockout: sgATG7, 100 nM	124
sgRNA knockout: sgATG7, 1000 nM	109
sgRNA knockout: sgATG7, 10000 nM	64.7
sgRNA knockout: sgERN1, 10 nM	93.4
sgRNA knockout: sgERN1, 100 nM	107
sgRNA knockout: sgERN1, 1000 nM	99.9
sgRNA knockout: sgERN1, 10000 nM	56.1
sgRNA knockout: sgHSF1, 10 nM	92.5
sgRNA knockout: sgHSF1, 100 nM	89.7
sgRNA knockout: sgHSF1, 1000 nM	115
sgRNA knockout: sgHSF1, 10000 nM	59.8
sgRNA knockout: sgHSF2, 10 nM	93.4
sgRNA knockout: sgHSF2, 100 nM	107
sgRNA knockout: sgHSF2, 1000 nM	114
sgRNA knockout: sgHSF2, 10000 nM	59.2
sgRNA knockout: sgKEAP1, 10 nM	110
sgRNA knockout: sgKEAP1, 100 nM	116
sgRNA knockout: sgKEAP1, 1000 nM	105
sgRNA knockout: sgKEAP1, 10000 nM	55.9
sgRNA knockout: sgNFE2L2, 10 nM	98.5
sgRNA knockout: sgNFE2L2, 100 nM	97.6
sgRNA knockout: sgNFE2L2, 1000 nM	104
sgRNA knockout: sgNFE2L2, 10000 nM	74.4
sgRNA knockout: sgSLC35F2, 10 nM	117
sgRNA knockout: sgSLC35F2, 100 nM	127
sgRNA knockout: sgSLC35F2, 1000 nM	113
sgRNA knockout: sgSLC35F2, 10000 nM	67.9
sgRNA knockout: sgXBP1, 10 nM	104
sgRNA knockout: sgXBP1, 100 nM	104
sgRNA knockout: sgXBP1, 1000 nM	104
sgRNA knockout: sgXBP1, 10000 nM	68.5

Cc1[nH]c(/C=C2\C(=O)Nc3ccc(S(=O)(=O)N(C)c4cccc(Cl)c4)cc32)c(C)c1C(=O)N1CCN(C)CC1
Conditions	relative cell number
sgRNA knockout: sgATF3, 10 nM	109
sgRNA knockout: sgATF3, 100 nM	82.7
sgRNA knockout: sgATF3, 1000 nM	64.1
sgRNA knockout: sgATF3, 10000 nM	56.9
sgRNA knockout: sgATF4, 10 nM	95.4
sgRNA knockout: sgATF4, 100 nM	91.7
sgRNA knockout: sgATF4, 1000 nM	59
sgRNA knockout: sgATF4, 10000 nM	71.5
sgRNA knockout: sgATF6, 10 nM	84.5
sgRNA knockout: sgATF6, 100 nM	90.8
sgRNA knockout: sgATF6, 1000 nM	83.7
sgRNA knockout: sgATF6, 10000 nM	49.8
sgRNA knockout: sgATG7, 10 nM	92.7
sgRNA knockout: sgATG7, 100 nM	86.9
sgRNA knockout: sgATG7, 1000 nM	96.4
sgRNA knockout: sgATG7, 10000 nM	48.7
sgRNA knockout: sgERN1, 10 nM	105
sgRNA knockout: sgERN1, 100 nM	108
sgRNA knockout: sgERN1, 1000 nM	85.1
sgRNA knockout: sgERN1, 10000 nM	39.4
sgRNA knockout: sgHSF1, 10 nM	94.3
sgRNA knockout: sgHSF1, 100 nM	105
sgRNA knockout: sgHSF1, 1000 nM	87.5
sgRNA knockout: sgHSF1, 10000 nM	50.8
sgRNA knockout: sgHSF2, 10 nM	124
sgRNA knockout: sgHSF2, 100 nM	99.4
sgRNA knockout: sgHSF2, 1000 nM	91.4
sgRNA knockout: sgHSF2, 10000 nM	37.1
sgRNA knockout: sgKEAP1, 10 nM	101
sgRNA knockout: sgKEAP1, 100 nM	109
sgRNA knockout: sgKEAP1, 1000 nM	98
sgRNA knockout: sgKEAP1, 10000 nM	56.8
sgRNA knockout: sgNFE2L2, 10 nM	103
sgRNA knockout: sgNFE2L2, 100 nM	102
sgRNA knockout: sgNFE2L2, 1000 nM	113
sgRNA knockout: sgNFE2L2, 10000 nM	49.4
sgRNA knockout: sgSLC35F2, 10 nM	93.5
sgRNA knockout: sgSLC35F2, 100 nM	83.3
sgRNA knockout: sgSLC35F2, 1000 nM	96.2
sgRNA knockout: sgSLC35F2, 10000 nM	45
sgRNA knockout: sgXBP1, 10 nM	119
sgRNA knockout: sgXBP1, 100 nM	108.1
sgRNA knockout: sgXBP1, 1000 nM	76.4
sgRNA knockout: sgXBP1, 10000 nM	45.6
